Test system: Trypanosoma brucei rhodesiense (bloodstream trypomastigotes, STIB 900 strain)
Test: In vitro anti-trypanosomal activity against Tbr
Assay type: cell-based
Settings: isolated compounds; SI = cytotoxic IC50 (L6)/IC50 Tbr
Protocol: In vitro tests for biological activity of the crude extracts, fractions, sub-fractions and isolated compounds against Trypanosoma brucei rhodesiense (bloodstream trypomastigotes, STIB 900 strain), Trypanosoma cruzi (amastigotes, Tulahuen C4 strain), Leishmania donovani (amastigotes, MHOM-ET-67/L82 strain), Plasmodium falciparum (intraerythrocytic form, NF54 strain) and cytotoxicity test against mammalian L6 cell line from rat skeletal myoblasts were performed according to the established standard protocol. However, only the activity data against Trypanosoma brucei rhodesiense is reported due to the inactivity of the tested substances against other parasites at the concentration tested.

Row | Structure (SMILES) | SI
1 | CC(=O)[C@H]1CC[C@H]2[C@@H]3CC[C@H]4C[C@H](N)CC[C@]4(C)[C@H]3CC[C@]12C [Compound 6, 3α-dihydroholaphyllamine] | 14.1
2 | CC(=O)[C@H]1CC[C@H]2[C@@H]3CC[C@H]4C[C@@H](N)CC[C@]4(C)[C@H]3CC[C@]12C [Compound 5, 3β-dihydroholaphyllamine] | 25.8
